Test results reported in patent publication US8003595B2, “Amino acid sequences facilitating penetration of a substance of interest into cells and/or cell nuclei” (Cellectis, priority 2000, dated 2011).
At least one peptide structure holds a part that was inferred or is arguable (an end, a ring closure or a residue). Where no end group is shown, it is not given here.

Columns and labels:
[1] = tested on: gram-positive and gram-negative bacterial strains; experiment: Antibacterial activity of cationic peptides, summary over strains; format: cell-based; conditions: summary of Table 29
Description: The gram-positive bacterial strains are: Enterococcus faecalis (ATCC 29212), and Staphylococcus aureus (ATCC 25923) and the gram-negative strains are: Escherichia coli (ATCC 25922), Pseudomonas aeruginosa (ATCC 27853) and Salmonella typhimurim (clinical isolate), Salmonella typhiTy2 (WHO). The bacteria are cultured with shaking all night at 37° C., then recultured at a dilution of 1:50 in some fresh Luria-Bertani (LB) medium for 2 hours. The bacterial concentration is adjusted to […], and 50 μl is distributed in 96-well plates with an equal volume of peptides diluted half and half (256-0.5 μg/ml) in LB medium. […] To determine the minimum bactericide concentration, 10 μl from each well is spread on gelose plates in LB medium.
However, when peptide HPB13 (SEQ ID NO: 38) is coupled with peptide SEQ ID NO: 24, it enhances its activity by a factor of 50 to 100 (peptide SEQ ID NO: 45). […] None these peptides are active on gram-positive bacteria.

[2] = tested on: H1299 cells; experiment: Inhibition of peptide-peroxidase internalization by drugs or 4° C.; format: cell-based, human; conditions: Sodium azide (0.1%); peptide-peroxidase 0.2 μg/ml, 2 hours
Description: To understand the biological mechanisms whereby the peptides penetrate into the cells and their compartmentalization, experiments are done with drugs whose action on certain cell compartments is specific. The peptide-peroxidases were incubated with H1299 cells at a concentration of 0.2 μg/ml for 2 hours in the presence, or not, of a drug. The cells were lysed, and the peroxidase dosed in the cellular lysate.

Row | Sequence | bactericide / anti-microbial activity [1] | percentage inhibition of peptide internalization [2] [%]
1 | KHLKKHLKKHLK [SEQ ID NO: 38] | not active | 
2 | SERKKRRRESRKKRRRES [SEQ ID NO: 26] |  | 70
